Measured values: patent publication US20150290235A1, “USE OF SMALL MOLECULE INHIBITORS/ACTIVATORS IN COMBINATION WITH (DEOXY)NUCLEOSIDE OR (DEOXY)NUCLEOTIDE ANALOGS FOR TREATMENT OF CANCER AND HEMATOLOGICAL MALIGNANCIES OR VIRAL INFECTIONS” (AB SCIENCE, priority 2012, published 2015)
Entries after “also recorded” stand apart in the source; their conditions may differ. At least one compound was matched to its structure with a doubt left. Some entries repeat one wording, which the source may state once for all of them.

Sequences of proteins named here, by UniProt entry; tags and fusion partners are left off. A change or cut given only in a name is not applied to a line headed by its entry.
UniProt P27707: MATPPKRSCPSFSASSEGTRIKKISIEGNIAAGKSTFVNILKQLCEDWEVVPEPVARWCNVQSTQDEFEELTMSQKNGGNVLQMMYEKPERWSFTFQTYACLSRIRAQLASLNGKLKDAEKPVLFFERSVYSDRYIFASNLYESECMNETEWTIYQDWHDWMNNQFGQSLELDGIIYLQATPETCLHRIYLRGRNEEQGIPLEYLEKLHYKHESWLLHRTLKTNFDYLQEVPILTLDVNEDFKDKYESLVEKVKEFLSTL

biological target: human deoxycytidine kinase (dCK) (Homo sapiens, UniProt P27707); assay: dCK activity with UTP as phosphate donor (PK/LDH enzymatic-coupled assay); conditions: nine dCK substrates

| Structure (SMILES) | activation of dCK (substrate phosphorylation) |
| --- | --- |
| CN1CCN(c2ccc3nc(-c4c(N)c5c(F)cccc5[nH]c4=O)[nH]c3c2)CC1 [dovitinib] | relatively little or no activity; also recorded: did not activate dCK |
| Cc1ccc(Nc2nccc(N(C)c3ccc4c(C)n(C)nc4c3)n2)cc1S(N)(=O)=O [pazopanib, 5-[[4-[(2,3-Dimethyl-2H-indazol-6-yl)methylamino]-2-pyrimidinyl]amino]-2-methylbenzolsulfonamide] | relatively little or no activity; also recorded: did not activate dCK |
| CCCS(=O)(=O)Nc1ccc(F)c(C(=O)c2c[nH]c3ncc(-c4ccc(Cl)cc4)cc23)c1F [vemurafenib] | relatively little or no activity; also recorded: did not activate dCK |
